# In PubChem BioAssay AID493014 (National Center for Advancing Translational Sciences (NCATS), 2011):
# Hit rate of the full screen: of about 340,000 compounds, about 170 (0.05%) were called active. This list was built around the results that the source calls inconclusive (neither active nor inactive); the mix of calls is not that of the screen. The call rests on the fitted dose curve; in most records, active means well fitted inhibition curve with a large enough effect in the signal ratio, with a control signal flat (not every such curve was filed as active); inconclusive means small, poorly fitted or top-dose-only effect, or effect the other way, or a change in a side signal; inactive means flat fitted curve, though single readings scatter; the % refers to the signal ratio. Where the call is inconclusive, the potency comes from a doubtful curve fit.
# Test: qHTS Assay to Find Inhibitors of Chronic Active B-Cell Receptor Signaling;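 on activity change, negative = inhibition: plate controls were basal doxycycline-induced cells for no effect and cells given 10 µM MG132 for full effect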
# Conditions: ABC-DLBCL IkBa-CBG/CBR reporter, luminescence ratio (green luciferase fused to IkBa over red control in TMD8 lymphoma cells), 4 h; activity change, negative = inhibition: at 46.1 µM (top of the series)
# Outline: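 Doxycycline induced both beetle luciferases in TMD8 lymphoma cells; IKK-driven degradation limits the IkappaBalpha-fused green signal, while red luminescence normalises for cell number and nonspecific effects. Compounds tested up to 46 uM, 4 hrs.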
# Potency means the concentration at half of the fitted maximal effect.
Structure (SMILES),"activity change, negative = inhibition",Potency
COc1ccc2cc(/C=C/C(=O)c3ccco3)c(Cl)nc2c1,inactive: -0.525%,
O=C(Nc1ccc2oc(=O)ccc2c1)c1cccnc1,,"inconclusive: 20.6 µM [falling, partial curve]"
COc1cc2c(cc1NC(=O)c1ccncc1)oc1ccccc12,,"inconclusive: 29.1 µM [falling, single point]"
CCOc1ccc(NC(=O)c2cc3c(=O)n(C)c4ccccc4c3n2C)cc1,,"inconclusive: 32.6 µM [falling, single point]"
Nc1ccc(C(=O)Nc2nccs2)cc1,inconclusive: -2.2%,
COC(=O)[C@@H]1CC[C@H](C)[C@@H](c2ccc(C)cc2)N1C(=O)c1ccc(/C=N/O[C@@H](C)CN2CCCCc3nc(C)c(C)cc32)cc1,inactive: -0.68%,
O=C(Nc1cc2c3c(c1)CC(=O)N3CCC2)c1ccc(Cl)cc1,,"inconclusive: 14.6 µM [falling, single point]"
COc1cc(/C=C(\C#N)c2ccccn2)cc(OC)c1O,inconclusive: -0.0859%,
Cc1c(C(=O)Nc2ccc(Oc3ccccc3)cc2)sc2nc3n(c(=O)c12)CCC3,inconclusive: -1.8%,
CC1CCc2c(sc3nc(CSc4nnnn4C)[nH]c(=O)c23)C1 (configuration not stated),,"inconclusive: 35.5 µM [rising, partial curve, poor fit]"
Cn1nnnc1Sc1ncnc2scc(-c3ccccc3)c12,inconclusive: -1.1%,
COc1ccc(C)cc1N(C(=O)c1ccccc1)c1nc2ccccc2s1,inconclusive: 4.88%,
COc1ccc(C(=O)OCC(=O)NC(=O)NC2CCCC2)c(O)c1,inactive: -4.99%,
COc1ccccc1-c1cc(C(=O)N2CCCc3ccccc32)no1,,"inconclusive: 22.4 µM [falling, partial curve, poor fit]"
CCOC(=O)N1CCC2(CC1)C(C#N)=C(N)Oc1c2c(C)nn1-c1cccc(Cl)c1,,"inconclusive: 4.61 µM [rising, partial curve, poor fit]"
CCC(=O)Nc1ccc(NC(=O)CSc2nc3c(c(=O)n(C)c(=O)n3C)n2CC)cc1,inconclusive: -11.6%,
COc1ccc(C2=NOC(C(=O)NCc3cccs3)C2)cc1 (configuration not stated),,"inconclusive: 18.4 µM [falling, partial curve]"
COCCNC(=O)C(c1ccc(C)o1)N(C(=O)C(=O)NC1CCCCC1)c1ccc(F)cc1 (configuration not stated),,"inconclusive: 25.1 µM [falling, single point]"
O=C(O)CC(NS(=O)(=O)Cc1ccccc1)c1cccc([N+](=O)[O-])c1 (configuration not stated),inconclusive: 2.97%,
CN(CC(=O)Nc1ccccc1Br)C(=O)CNC(=O)c1ccc(Oc2ccccc2)cc1,inconclusive: -18%,
COC(=O)CNC(=O)CN1C(=O)N(c2cccc(Cl)c2)C(N(O)C(=O)Nc2cccc(Cl)c2)C1(C)C (configuration not stated),inconclusive: 9.42%,
C=CCOc1nc2sc(C)c(C)c2c(=O)n1-c1ccccc1,inconclusive: 9.98%,
C/C(=N\Nc1ncc(Cl)cc1Cl)c1ccc(N2CCOCC2)cc1,,"inconclusive: 35.5 µM [cytotoxic, single point]"
COc1ccc(/C=N/Nc2ccc([N+](=O)[O-])cc2)cc1Cn1cc([N+](=O)[O-])cn1,,"inconclusive: 0.164 µM [rising, full curve, poor fit]"

Structure (SMILES),"activity change, negative = inhibition",Potency
CCN(CC(=O)Nc1ccc(NC(C)=O)cc1)C(=O)CCCc1nc2ccccc2s1,inconclusive: -18.5%,
Cc1cc(Br)cnc1NC(=S)Nc1ccc(F)cc1F,inconclusive: 6.94%,
O=S(=O)(CCc1nc2ccccc2o1)c1ccc(Cl)cc1,inconclusive: 9.49%,
Nc1ccccc1Oc1ccc2ccccc2c1,inconclusive: 1.42%,
O=[N+]([O-])c1cc(C(F)(F)F)ccc1NCCCCNS(=O)(=O)c1ccc(Cl)cc1,inactive: -2.46%,
Cc1ccc(SSc2cc(C)ccc2N)c(N)c1,,"inconclusive: 23.1 µM [falling, partial curve]"
COc1ccc(C(=O)Nc2ccc(OC)c([N+](=O)[O-])c2)cc1Br,,"inconclusive: 17.8 µM [falling, single point]"
CCCCC[C@@H]1C=C(C(=O)O)[C@H](c2ccc(Cl)cc2)N1S(=O)(=O)c1ccc(C)cc1,,"inconclusive: 32.6 µM [falling, partial curve, poor fit]"
Cc1ccc(NC(=S)NC2CC3CCCC(C2)N3Cc2ccco2)cc1 (configuration not stated),inactive: -0.0453%,
COC(=O)N1C(=O)[C@](c2ccc(OC)cc2)(C(C)C)N1C(=O)OC,,"inconclusive: 14.1 µM [falling, single point]"
O=C(c1cc(=O)[nH]c2ccccc12)N1CC=C(c2ccccc2)CC1,inconclusive: -0.191%,
COc1ccc(NC(=O)c2cc3c([nH]c4ccccc43)c(C)n2)cc1,,"inconclusive: 18.4 µM [falling, partial curve]"
Cc1cc2c(C)nc(N/N=C/c3ccccc3)nc2o1,,"inconclusive: 20.6 µM [falling, single point]"
S=c1[nH]ncn1/N=C/c1cccc(Oc2ccccc2)c1,,"inconclusive: 29.1 µM [falling, single point]"
CCCOc1ccc(C(=O)O)cc1,inconclusive: -7.55%,
Cc1cc(C)cc(NC(=O)NNC(=O)c2cc3occc3[nH]2)c1,inconclusive: -3.34%,
CC1CN/C(=C\C(=O)c2ccc(Cl)cc2)C(=O)N1 (configuration not stated),,"inconclusive: 29.1 µM [rising, single point]"
COc1cccc(-c2nnc(NC(=O)c3ccc4ncsc4c3)o2)c1,,"inconclusive: 2.59 µM [falling, partial curve, poor fit]"
COc1ccccc1-c1nnc(SCc2ccccn2)n1C,inconclusive: -3.98%,
C=CCNc1nc(-c2ccc(Cl)cc2)cs1,,"inconclusive: 35.5 µM [falling, single point]"
O=C(O/N=C\c1ccc(N2CCOCC2)c([N+](=O)[O-])c1)c1ccccc1Cl,inactive: -15.1%,
CCc1ccccc1NC(=S)N(CCN1CCOCC1)Cc1ccccc1F,inactive: -0.44%,
CCC1=C(OC(=O)N(CC)CC)N2C(=O)OC(=NCCOC)[C@]2(Cc2ccccc2)[C@H]2C1=CC[C@H]1C(=O)N(CC)C(=O)[C@H]12,inconclusive: -1%,

# Ordered by molar mass (rising): three of the compounds above.
Structure (SMILES),"activity change, negative = inhibition",Potency
C=CCNc1nc(-c2ccc(Cl)cc2)cs1,,"inconclusive: 35.5 µM [falling, single point]"
O=S(=O)(CCc1nc2ccccc2o1)c1ccc(Cl)cc1,inconclusive: 9.49%,
COc1cccc(-c2nnc(NC(=O)c3ccc4ncsc4c3)o2)c1,,"inconclusive: 2.59 µM [falling, partial curve, poor fit]"
